These are yes or no findings as the source states them, for the method shown. Some binding calls cover weakened binding; strength is not graded here.
T1: N-terminal region of human PALLD comprising Ig1 and Ig2 (amino acids 1-528) (human) (UniProt Q8WX93)
T1 sequence: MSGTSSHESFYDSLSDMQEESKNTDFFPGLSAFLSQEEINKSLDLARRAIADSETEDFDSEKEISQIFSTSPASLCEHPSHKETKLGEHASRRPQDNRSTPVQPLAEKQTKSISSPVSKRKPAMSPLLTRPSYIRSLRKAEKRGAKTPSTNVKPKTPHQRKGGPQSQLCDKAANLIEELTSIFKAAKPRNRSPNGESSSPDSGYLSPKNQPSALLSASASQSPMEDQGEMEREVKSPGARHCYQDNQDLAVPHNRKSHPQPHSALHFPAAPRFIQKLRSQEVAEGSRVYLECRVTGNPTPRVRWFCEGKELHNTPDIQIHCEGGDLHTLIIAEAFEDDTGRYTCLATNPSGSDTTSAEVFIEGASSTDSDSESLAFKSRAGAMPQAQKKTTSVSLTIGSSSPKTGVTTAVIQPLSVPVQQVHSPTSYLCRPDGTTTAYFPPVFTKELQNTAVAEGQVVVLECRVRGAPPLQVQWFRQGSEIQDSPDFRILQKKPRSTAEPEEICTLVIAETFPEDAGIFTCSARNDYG

The chains behind the UniProt entries cited, without tags or fusion partners.
UniProt Q15327: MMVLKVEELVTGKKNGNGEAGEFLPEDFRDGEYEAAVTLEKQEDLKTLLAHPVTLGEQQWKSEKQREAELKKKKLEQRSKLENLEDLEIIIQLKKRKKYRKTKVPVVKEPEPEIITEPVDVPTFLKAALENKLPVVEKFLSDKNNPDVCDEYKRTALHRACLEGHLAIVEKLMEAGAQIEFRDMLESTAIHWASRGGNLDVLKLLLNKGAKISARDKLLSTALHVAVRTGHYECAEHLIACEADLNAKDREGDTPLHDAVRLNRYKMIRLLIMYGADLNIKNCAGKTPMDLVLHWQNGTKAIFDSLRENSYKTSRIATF

T2: human MYPN N-term start-Ig2 (aa 1-522) (human) (UniProt Q86TC9)
T2 sequence: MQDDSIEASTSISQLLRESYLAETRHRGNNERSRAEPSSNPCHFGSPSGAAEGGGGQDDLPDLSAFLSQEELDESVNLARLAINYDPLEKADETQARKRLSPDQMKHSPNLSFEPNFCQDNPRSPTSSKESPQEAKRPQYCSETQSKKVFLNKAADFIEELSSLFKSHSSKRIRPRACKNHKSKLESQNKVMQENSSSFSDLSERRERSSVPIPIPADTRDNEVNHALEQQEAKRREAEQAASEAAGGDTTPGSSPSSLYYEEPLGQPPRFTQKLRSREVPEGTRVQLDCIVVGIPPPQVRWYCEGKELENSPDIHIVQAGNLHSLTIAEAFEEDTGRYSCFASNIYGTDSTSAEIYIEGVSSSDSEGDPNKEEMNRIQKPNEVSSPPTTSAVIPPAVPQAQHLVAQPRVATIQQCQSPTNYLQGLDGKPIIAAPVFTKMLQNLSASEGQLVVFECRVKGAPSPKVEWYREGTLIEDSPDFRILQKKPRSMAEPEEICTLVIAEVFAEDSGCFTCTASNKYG


Columns and labels:
[1] = molecular target: T1, N-terminal region of human PALLD comprising Ig1 and Ig2 (amino acids 1-528) (human); test: two-hybrid; cotransformation of pGBKT7 DNA-BD and pGADT7-AD constructs into the Y2H Gold yeast strain, spotted on SD/-Ade/-His/-Leu/-Trp/AbA/X-alpha-Gal plates, 3-4 d at 30°C
[2] = molecular target: T1, N-terminal region of human PALLD comprising Ig1 and Ig2 (amino acids 1-528) (human); test: two-hybrid; Matchmaker Gold yeast two-hybrid screening; bait PALLD aa 1-528 in pGBKT7 combined with a Mate & Plate Human Heart library; selection on SD/-Ade/-His/-Leu/-Trp/AbA, then X-alpha-Gal plates, 30°C
[3] = molecular target: T2, human MYPN N-term start-Ig2 (aa 1-522) (human); test: two-hybrid; cotransformation of pGBKT7 DNA-BD and pGADT7-AD constructs into the Y2H Gold yeast strain, spotted on SD/-Ade/-His/-Leu/-Trp/AbA/X-alpha-Gal plates, 3-4 d at 30°C

Molecule | binding [1] | binding [2] | binding [3]
human CARP full-length (pGADT7-AD) (from UniProt Q15327 1-319) | binds |  | 
human FHOD1 aa 965-1164 (the 200 C-terminal amino acid residues) (domain or fragment, UniProt Q9Y613 965-1164) PQAAREVRIMQFCHTLREFALEYRTCRERVLQQQQKQATYRERNKTRGRMITETEKFSGVAGEAPSNPSVPVAVSSGPGRGDADSHASMKSLLTSRPEDTTHNRRSRGMVQSSSPIMPTVGPSTASPEEPPGSSLPSDTSDEIMDLLVQSVTKSSPRALAARERKRSRGNRKSLRRTLKSGLGDDLVQALGLSKGPGLEV |  | binds | 
human FHOD1 aa 965-1052 (domain or fragment, UniProt Q9Y613 965-1052) PQAAREVRIMQFCHTLREFALEYRTCRERVLQQQQKQATYRERNKTRGRMITETEKFSGVAGEAPSNPSVPVAVSSGPGRGDADSHAS | binds |  | binds

Source: article PMC10069870
